## Results of single-concentration screens

By UniProt entry, the sequences of proteins in these tests, tags left out. Residues count along the entry.
UniProt I6X8D2, whole entry: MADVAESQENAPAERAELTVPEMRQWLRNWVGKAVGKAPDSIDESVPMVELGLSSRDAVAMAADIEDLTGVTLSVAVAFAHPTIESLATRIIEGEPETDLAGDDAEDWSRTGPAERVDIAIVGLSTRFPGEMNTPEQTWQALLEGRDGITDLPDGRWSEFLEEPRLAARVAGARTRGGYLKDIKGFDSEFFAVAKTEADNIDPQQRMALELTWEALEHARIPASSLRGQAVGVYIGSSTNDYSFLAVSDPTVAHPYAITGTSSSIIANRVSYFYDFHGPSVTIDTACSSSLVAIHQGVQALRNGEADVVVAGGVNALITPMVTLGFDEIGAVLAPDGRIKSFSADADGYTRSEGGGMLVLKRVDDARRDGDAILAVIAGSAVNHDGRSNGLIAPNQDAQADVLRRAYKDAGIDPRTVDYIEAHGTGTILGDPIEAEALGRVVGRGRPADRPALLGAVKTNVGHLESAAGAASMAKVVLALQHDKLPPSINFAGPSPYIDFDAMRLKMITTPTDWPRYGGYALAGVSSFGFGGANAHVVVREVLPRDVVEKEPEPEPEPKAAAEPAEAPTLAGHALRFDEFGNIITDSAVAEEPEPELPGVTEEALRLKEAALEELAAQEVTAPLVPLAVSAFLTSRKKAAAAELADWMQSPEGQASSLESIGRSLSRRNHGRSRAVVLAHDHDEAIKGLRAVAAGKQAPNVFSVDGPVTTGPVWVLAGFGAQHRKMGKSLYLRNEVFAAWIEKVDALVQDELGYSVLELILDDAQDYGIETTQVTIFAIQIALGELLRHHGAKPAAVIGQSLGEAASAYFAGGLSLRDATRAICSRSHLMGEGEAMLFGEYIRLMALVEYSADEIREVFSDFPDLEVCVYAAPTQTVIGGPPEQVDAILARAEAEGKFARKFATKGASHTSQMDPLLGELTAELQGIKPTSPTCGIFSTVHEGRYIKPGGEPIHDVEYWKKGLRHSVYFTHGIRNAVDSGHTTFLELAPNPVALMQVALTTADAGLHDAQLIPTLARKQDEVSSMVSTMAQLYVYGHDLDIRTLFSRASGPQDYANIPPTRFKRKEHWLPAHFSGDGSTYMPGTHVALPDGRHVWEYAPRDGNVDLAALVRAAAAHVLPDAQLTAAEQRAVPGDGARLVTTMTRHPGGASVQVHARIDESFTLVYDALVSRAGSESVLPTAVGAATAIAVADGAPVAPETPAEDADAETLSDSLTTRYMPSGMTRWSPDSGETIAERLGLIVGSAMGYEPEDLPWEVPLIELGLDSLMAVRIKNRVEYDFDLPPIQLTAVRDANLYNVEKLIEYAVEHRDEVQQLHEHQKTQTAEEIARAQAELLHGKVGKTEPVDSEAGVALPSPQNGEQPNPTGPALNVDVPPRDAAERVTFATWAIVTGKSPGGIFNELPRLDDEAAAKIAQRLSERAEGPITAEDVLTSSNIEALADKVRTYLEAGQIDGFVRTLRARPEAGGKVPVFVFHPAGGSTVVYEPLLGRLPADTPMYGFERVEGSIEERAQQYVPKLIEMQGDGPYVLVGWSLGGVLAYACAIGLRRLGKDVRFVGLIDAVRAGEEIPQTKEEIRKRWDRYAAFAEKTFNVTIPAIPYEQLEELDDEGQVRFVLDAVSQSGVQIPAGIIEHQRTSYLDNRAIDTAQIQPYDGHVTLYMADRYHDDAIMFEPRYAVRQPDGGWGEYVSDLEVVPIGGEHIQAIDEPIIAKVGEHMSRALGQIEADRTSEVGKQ
UniProt A4I591, 1-473: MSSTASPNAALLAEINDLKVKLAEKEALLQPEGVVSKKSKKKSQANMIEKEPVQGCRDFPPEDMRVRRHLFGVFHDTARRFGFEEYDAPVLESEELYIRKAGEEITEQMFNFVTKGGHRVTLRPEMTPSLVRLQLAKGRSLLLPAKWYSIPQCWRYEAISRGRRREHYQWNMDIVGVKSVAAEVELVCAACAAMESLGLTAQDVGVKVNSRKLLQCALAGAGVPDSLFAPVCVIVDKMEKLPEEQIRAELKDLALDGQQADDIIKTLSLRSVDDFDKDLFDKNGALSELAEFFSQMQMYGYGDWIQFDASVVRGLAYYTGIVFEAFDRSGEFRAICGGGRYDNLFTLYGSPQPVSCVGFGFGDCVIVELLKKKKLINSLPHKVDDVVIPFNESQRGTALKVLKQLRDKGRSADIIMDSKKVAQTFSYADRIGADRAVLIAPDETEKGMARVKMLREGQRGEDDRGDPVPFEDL
UniProt P9WPC5, whole entry: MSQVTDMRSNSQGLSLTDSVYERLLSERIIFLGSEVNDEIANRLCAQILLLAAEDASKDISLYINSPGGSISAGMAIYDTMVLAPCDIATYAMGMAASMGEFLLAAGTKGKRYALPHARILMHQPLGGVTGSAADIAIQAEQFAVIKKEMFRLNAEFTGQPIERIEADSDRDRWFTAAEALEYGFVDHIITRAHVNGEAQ
UniProt P9WPC3, whole entry partner: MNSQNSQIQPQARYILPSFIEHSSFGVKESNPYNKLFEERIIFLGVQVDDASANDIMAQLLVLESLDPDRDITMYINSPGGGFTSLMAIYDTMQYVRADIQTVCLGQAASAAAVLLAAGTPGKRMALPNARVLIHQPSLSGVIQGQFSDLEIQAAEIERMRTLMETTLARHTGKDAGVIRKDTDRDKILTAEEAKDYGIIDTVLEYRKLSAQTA
UniProt P9WNZ1, whole entry: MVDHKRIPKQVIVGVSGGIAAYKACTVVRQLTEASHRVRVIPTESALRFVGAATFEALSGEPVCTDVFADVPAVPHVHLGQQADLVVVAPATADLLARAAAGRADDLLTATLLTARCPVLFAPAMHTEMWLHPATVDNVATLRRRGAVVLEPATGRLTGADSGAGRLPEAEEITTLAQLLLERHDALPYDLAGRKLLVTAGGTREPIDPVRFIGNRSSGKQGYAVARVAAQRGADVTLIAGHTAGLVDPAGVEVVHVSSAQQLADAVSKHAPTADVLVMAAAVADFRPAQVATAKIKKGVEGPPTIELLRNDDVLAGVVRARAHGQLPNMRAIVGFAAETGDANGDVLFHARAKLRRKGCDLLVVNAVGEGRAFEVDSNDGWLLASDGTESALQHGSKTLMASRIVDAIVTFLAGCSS

Measurements from “University of Dundee, Small-Polar-MMV Screening Library” (2021), ChEMBL document CHEMBL3988442.

Each number is a percent effect as filed. How 0% and 100% were set is not recorded. Most values in the screen are low, and negative values occur. The compounds are a random part of those screened. Two or more numbers in one place are separate tests of the same structure; such repeats can differ widely.

Pks13 thioesterase: 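Polyketide synthase Pks13, Mycobacterium tuberculosis (UniProt I6X8D2). Enzyme assay of the thioesterase domain of polyketide synthase 13; the read-out is not stated. Compounds at 30 µM. Higher reads as stronger inhibition (inferred from which compounds were picked for retests). About 67,000 compounds were tested under these conditions; 0.46% (about 300) showed 50% or more at least once.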
LiHisRS: 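Enzyme assay of histidyl-tRNA synthetase; the read-out is not stated. Target: Histidine-tRNA ligase, Leishmania infantum (UniProt A4I591). Tested at 30 µM. Higher reads as stronger inhibition (inferred: compounds with an IC50 in retests scored well above the rest). The assay is labelled LdHisRS but filed under L. infantum. About 69,000 compounds were tested under these conditions; 0.6% (about 410) showed 50% or more at least once.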
Leishmania in macrophages: 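Cell assay of Leishmania donovani living inside macrophages; the read-out is not stated. Compounds at 30 µM. Higher reads as stronger inhibition (inferred: compounds with an IC50 in retests scored well above the rest). About 69,000 compounds were tested under these conditions; 1.5% (about 1,000) showed 50% or more at least once.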
ClpP1P2: 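Protease assay of ClpP1P2, read by the AMC dye that it sets free. Target: ClpP1P2, Mycobacterium tuberculosis (UniProt P9WPC5 and UniProt P9WPC3). Concentration: 50 µM. Direction is inferred from only a few compounds that gave an IC50; most scored high, so higher reads as stronger inhibition. Most other retested compounds had strongly negative values. About 69,000 compounds were tested under these conditions; 0.015% (about 10) showed 50% or more at least once.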
Toxoplasma: 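Assay of Toxoplasma gondii numbers, read through their beta-galactosidase reporter with a colour substrate. Concentration: 10 µM. The record gives no direction; the compounds picked for IC50 retests had high values, so higher reads as fewer parasites. Size under these conditions: about 67,000 compounds, about 260 of them at 50% or above in at least one test.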
CoaBC: 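Enzyme assay of CoaBC with a phosphate dye (Biomol Green) read at 650 nm. Target: Coenzyme A biosynthesis protein CoaBC, Mycobacterium tuberculosis (UniProt P9WNZ1). Tested at 30 µM. Direction is inferred from only a few compounds that gave an IC50; most scored high, so higher reads as stronger inhibition. Most strong results did not repeat in a second test. Of about 67,000 compounds tested this way, about 40 (0.06%) reached 50% or more in at least one test.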

{"smiles": "O=C(c1ncc[nH]1)N1CCC(n2cc(-c3cccc(Cl)c3)nn2)CC1", "Pks13 thioesterase": -13.65, "LiHisRS": 19.35, "Leishmania in macrophages": -62.85, "ClpP1P2": -10.89, "Toxoplasma": 1.39, "CoaBC": 3.44}
{"smiles": "Cc1noc(C)c1C(=O)N1CCCCC1c1cc(C)n2ccnc2n1", "stereo": "stereo not given", "Pks13 thioesterase": -1.885, "LiHisRS": 7.586, "Leishmania in macrophages": 18.73, "ClpP1P2": -2.442, "Toxoplasma": -24.24, "CoaBC": 3.585}
{"smiles": "Fc1cnc(N2CCCC3(COCCN(c4nccs4)C3)C2)nc1", "stereo": "stereo not given", "Pks13 thioesterase": 0.5371, "LiHisRS": 21.82, "ClpP1P2": 7.958, "CoaBC": -13.45}
{"smiles": "COc1ccc2[nH]cc(-c3ccnc(NC4CCCC4)n3)c2c1", "Pks13 thioesterase": 18.55, "LiHisRS": 22.86, "Leishmania in macrophages": "71.69 and 45.81", "ClpP1P2": -36.12, "Toxoplasma": 56.3, "CoaBC": 5.904}
{"smiles": "CNC(=O)c1cccc(CCNC(=O)N2CCc3ccccc3C2)c1", "Pks13 thioesterase": 12.08, "LiHisRS": 8.547, "Leishmania in macrophages": -15.07, "ClpP1P2": -3.268, "Toxoplasma": -0.769, "CoaBC": 3.846}
{"smiles": "COc1ccc(OC)c(CNC2CCCc3nc(N(C)C)ncc32)c1", "stereo": "stereo not given", "Pks13 thioesterase": -12.35, "LiHisRS": 4.196, "Leishmania in macrophages": 28.56, "ClpP1P2": -5.777, "Toxoplasma": 4.332, "CoaBC": 1.481}
{"smiles": "CN1CCN(C2CCN(C(C(N)=O)c3ccccc3)CC2)C1=O", "stereo": "stereo not given", "Pks13 thioesterase": 13.5, "LiHisRS": 3.896, "Leishmania in macrophages": -10.7, "ClpP1P2": -18.04, "Toxoplasma": 3.426, "CoaBC": 1.899}
{"smiles": "O=C(O)C(F)(F)F.O=S(=O)(C1CC1)N1CCCn2cnc(COc3cccnc3)c2C1", "Leishmania in macrophages": 25.08, "Toxoplasma": 13.13}
{"smiles": "O=S(=O)(C1CC1)N1CCCn2cnc(COc3cccnc3)c2C1", "Pks13 thioesterase": 10.57, "LiHisRS": 9.434, "ClpP1P2": 1.233, "CoaBC": 4.39}
{"smiles": "O=C(CCCn1cncn1)NC1(c2cccc(Br)c2)CC1", "Pks13 thioesterase": -27.83, "LiHisRS": 24.73, "Leishmania in macrophages": 13.65, "ClpP1P2": -4.388, "Toxoplasma": -2.294, "CoaBC": 0.8526}
{"smiles": "c1cc2c(cc1CN1C[C@@H]3COC[C@@H](N4CCCC4)[C@@H]3C1)OCO2", "LiHisRS": 19.66, "ClpP1P2": 6.794, "CoaBC": -5.417}
{"smiles": "CNS(=O)(=O)c1cccc(CNC(=O)c2c(C)nn(C)c2C)c1", "Pks13 thioesterase": -3.355, "LiHisRS": 16.22, "Leishmania in macrophages": 4.196, "ClpP1P2": 5.255, "Toxoplasma": -4.443, "CoaBC": 1.044}
{"smiles": "[H][C@@]12CS(=O)(=O)C[C@]1([H])N(Cc1nc(C)n[nH]1)CCN2Cc1ccccc1", "Leishmania in macrophages": -21.61, "Toxoplasma": -9.399}
{"smiles": "O=C1N(c2ccc(F)cc2)Cc2nc(=O)n(Cc3cccc(Cl)c3)n21", "Pks13 thioesterase": -26.47, "LiHisRS": 3.883, "Leishmania in macrophages": -22.85, "ClpP1P2": -7.342, "Toxoplasma": -16.86, "CoaBC": -1.75}
{"smiles": "Cc1ncc(CN2CCOCC2)c2cc(C(=O)c3ccc(Br)cc3)oc12.Cl", "Leishmania in macrophages": -6.853, "Toxoplasma": 8.354}
{"smiles": "OCC1(Cc2ccc(Cl)cc2)CCN(Cc2ccccc2O)CC1", "Pks13 thioesterase": -16.28, "LiHisRS": 19.74, "Leishmania in macrophages": 7.403, "ClpP1P2": -11.11, "Toxoplasma": 1.645, "CoaBC": -10.28}
{"smiles": "Cc1ccc(CN2CC[C@@H]3OCCN(S(C)(=O)=O)[C@H]3CC2)s1", "Pks13 thioesterase": -11.43, "LiHisRS": 7.547, "ClpP1P2": -9.909, "CoaBC": -0.7317}
{"smiles": "c1cnc2ccc(C[C@@H]3CC[C@H](CN4CCCOCC4)O3)cc2c1", "Pks13 thioesterase": 5.903, "LiHisRS": 26.23, "Leishmania in macrophages": 40.88, "ClpP1P2": -23.3, "Toxoplasma": 3.193, "CoaBC": 5.622}
{"smiles": "Cc1nnc(CSCc2ccc(OCC(F)(F)F)nc2)o1", "Pks13 thioesterase": -28.94, "LiHisRS": 1.266, "Leishmania in macrophages": 36.3, "ClpP1P2": -17.16, "Toxoplasma": -32.34, "CoaBC": 2.155}
{"smiles": "O=C(O)C(F)(F)F.O=C(O)C(F)(F)F.[H][C@@]12OCCC[C@]1([H])N(Cc1cccc(C)n1)C[C@@H]2NS(C)(=O)=O", "Leishmania in macrophages": -8.785, "Toxoplasma": 0.2137}
{"smiles": "COc1ccc(CCC2CCCCN2)cc1", "stereo": "stereo not given", "Pks13 thioesterase": 19.86, "LiHisRS": 21.74, "ClpP1P2": -4.991, "CoaBC": 1.58}
{"smiles": "CCc1cnc(CN(C)C2CCN(CCc3cccs3)C2)o1", "stereo": "stereo not given", "Pks13 thioesterase": -8.127, "LiHisRS": 28.79, "Leishmania in macrophages": 23.28, "ClpP1P2": 19.37, "Toxoplasma": -3.955, "CoaBC": 7.846}
{"smiles": "COc1ccnc(N2CCCN(c3nc(C4CC4)ns3)CC2)n1", "Pks13 thioesterase": -8.672, "LiHisRS": 3.306, "Leishmania in macrophages": -59.75, "ClpP1P2": -2.899, "Toxoplasma": 15.88, "CoaBC": 2.122}
{"smiles": "COCCN1CCN(C)C2(CCN(C(=O)c3ccnnc3)CC2)C1=O.O=C(O)C(F)(F)F", "Leishmania in macrophages": "-34.7 and 3.063", "Toxoplasma": -3.087}
{"smiles": "CCOc1ccc(NC(C)=O)cc1S(=O)(=O)Nc1nccs1", "Pks13 thioesterase": -20.54, "LiHisRS": 16.85, "Leishmania in macrophages": -4.761, "ClpP1P2": -0.3303, "Toxoplasma": 11.93, "CoaBC": -3.125}

Some entries from above, unchanged:

- Cc1noc(C)c1C(=O)N1CCCCC1c1cc(C)n2ccnc2n1 (stereo not given) | Pks13 thioesterase: -1.885%; LiHisRS: 7.586%; Leishmania in macrophages: 18.73%; ClpP1P2: -2.442%; Toxoplasma: -24.24%; CoaBC: 3.585%
- COc1ccnc(N2CCCN(c3nc(C4CC4)ns3)CC2)n1 | Pks13 thioesterase: -8.672%; LiHisRS: 3.306%; Leishmania in macrophages: -59.75%; ClpP1P2: -2.899%; Toxoplasma: 15.88%; CoaBC: 2.122%